Results deposited as PubChem BioAssay AID1224826 (NIAID, 2016)
The whole screen tested about 17,000 reagents; this is a random part of them. About 1,110 of all reagents (6.6%) were called active. 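Active means lowered or raised reporter signal; replicate intensities are raw and not normalised per plate.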 A number with no mark means an inactive call. Reagents against one gene are numbered here. Not all columns of the deposit are shown.

- Assay: 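Regulators of Tlr4 signalling leading to Tnf-alpha expression in macrophages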 (primary screen)
- Cells: RAW264.7 G9 macrophages from mouse bearing reporters for p65 (GFP) and the Tnf promoter (mCherry)
- Knock-down reagent: siRNA pool against mouse genes, 100 nM
- Time to read-out: 16 h of LPS stimulation, after 2 days of siRNA transfection
- Conditions: bacterial lipopolysaccharide (Salmonella minnesota R595), 10 ng/ml
- Measurement: 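Nuclear mCherry signal of the Tnf promoter reporter measured by imaging after background removal, scaled to each plate median and turned into robust z-scores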
- Direction: Tnf reporter robust z-score: higher = stronger Tnf promoter reporter signal after LPS
- Hit rule: 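a well counts as active at a score of -1.3 or below (Tlr4 knock-down control median) or above 3 (raised signal); controls and wells holding fewer than 50 cells are excluded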
- Meaning of the calls: active = Tnf reporter clearly lowered or raised; inactive = no clear change in Tnf reporter

| gene | reagent no. | Tnf reporter robust z-score | fewer than 50 cells in well |
| --- | --- | --- | --- |
| Or8k16 | 1 | 0.97 | enough cells in well |
| Zfp202 | 1 | -0.87 | enough cells in well |
| Fkbp9 | 1 | 1.53 | enough cells in well |
| Ceacam9 | 1 | 2.17 | enough cells in well |
| LOC381853 | 1 | 0.46 | enough cells in well |
| Tmem79 | 1 | – | fewer than 50 cells per well; well left out of calls |
| Chaf1a | 1 | -1.4 (active) | enough cells in well |
| Rpl35a | 1 | -1.5 (active) | enough cells in well |
| Myoc | 1 | 0.41 | enough cells in well |
| Fam98a | 1 | 0.69 | enough cells in well |
| Upk1b | 1 | -0.75 | enough cells in well |
| Dynll2 | 1 | – | fewer than 50 cells per well; well left out of calls |
| Med7 | 1 | -0.1 | enough cells in well |
| Rbsn | 1 | -0.79 | enough cells in well |
| Gzme | 1 | 0.25 | enough cells in well |
| Plk3 | 1 | 0.3 | enough cells in well |
| Skint3 | 1 | 0.83 | enough cells in well |
| Fam228b | 1 | -0.89 | enough cells in well |
| Sh3tc1 | 1 | -0.7 | enough cells in well |

Quoted from the entries so far, 5 entries:
| gene | reagent no. | Tnf reporter robust z-score | fewer than 50 cells in well |
| --- | --- | --- | --- |
| Rpl35a | 1 | -1.5 (active) | enough cells in well |
| Myoc | 1 | 0.41 | enough cells in well |
| Fam98a | 1 | 0.69 | enough cells in well |
| Upk1b | 1 | -0.75 | enough cells in well |
| Dynll2 | 1 | – | fewer than 50 cells per well; well left out of calls |

Further entries:
| gene | reagent no. | Tnf reporter robust z-score | fewer than 50 cells in well |
| --- | --- | --- | --- |
| Lactb | 1 | 0.97 | enough cells in well |
| Cobl | 1 | 0.35 | enough cells in well |
| Rrm1 | 1 | – | fewer than 50 cells per well; well left out of calls |
| Plekha3 | 1 | 1.48 | enough cells in well |
| Slc7a11 | 1 | -0.02 | enough cells in well |
| Nprl2 | 1 | -0.29 | enough cells in well |
| Ska1 | 1 | – | fewer than 50 cells per well; well left out of calls |
| Dlg5 | 1 | -0.47 | enough cells in well |
| Klra5 | 1 | 0.06 | enough cells in well |
| Mrpl16 | 1 | -1.25 | enough cells in well |
| Ly6e | 1 | -0.9 | enough cells in well |
| Or5p72 | 1 | 0.56 | enough cells in well |
| Arf2 | 1 | -1.08 | enough cells in well |
| Ap1s2 | 1 | 0.17 | enough cells in well |
| Ufsp1 | 1 | – | fewer than 50 cells per well; well left out of calls |
| Mdh2 | 1 | -0.66 | enough cells in well |
| Sybu | 1 | – | fewer than 50 cells per well; well left out of calls |
| Sybu | 2 | 0.14 | enough cells in well |
| Paqr6 | 1 | 3.02 (active) | enough cells in well |
| Sypl2 | 1 | -0.76 | enough cells in well |
| Arhgap27 | 1 | -0.12 | enough cells in well |
| Arhgap27 | 2 | – | fewer than 50 cells per well; well left out of calls |
| Klrb1a | 1 | -0.41 | enough cells in well |
| Stac3 | 1 | -0.05 | enough cells in well |
| Tgif1 | 1 | 0.08 | enough cells in well |
| Pcdhb3 | 1 | -0.62 | enough cells in well |
| Tppp | 1 | – | fewer than 50 cells per well; well left out of calls |
| Vmac | 1 | 0.8 | enough cells in well |
| Amhr2 | 1 | 1.3 | enough cells in well |
| Cnn1 | 1 | -0.86 | enough cells in well |
| Fkbp8 | 1 | -0.39 | enough cells in well |
| Pcdhb4 | 1 | 1.79 | enough cells in well |
| Sstr3 | 1 | – | fewer than 50 cells per well; well left out of calls |
| Npl | 1 | 0.67 | enough cells in well |
| Bola2 | 1 | 1.55 | enough cells in well |
| Snrnp48 | 1 | 2.7 | enough cells in well |
| Med26 | 1 | -0.75 | enough cells in well |
| Atp5f1d | 1 | – | fewer than 50 cells per well; well left out of calls |
| Slc38a7 | 1 | 0.34 | enough cells in well |
